Results deposited as PubChem BioAssay AID1259283 (Sanger Institute, 2017)

- Aim: 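Kinases whose silencing adds to targeted drugs in killing colon cancer cells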 (primary screen)
- Cell system: HT115 colorectal cancer cells
- Reagent: siRNA pool against human genes
- Treatment: anchor drug given one day after siRNA: BYL719 at 1 µM, cetuximab at 5 µg/ml, trametinib at 10 nM, or DMSO vehicle alone
- Measured: 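Per-drug synergy scores plus replicate-mean viability relative to non-targeting pool #2 wells, also expressed as a robust z-score based on control wells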
- Direction: robust z-score, knock-down alone: higher = more viable cells after knock-down; viability, DMSO vs non-targeting control: higher = more viable cells; synergy score with BYL719 and synergy score with cetuximab: higher = stronger synergy with drug (synthetic lethal)
- Hit rule: 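Essential gene: robust z-score less than -3 with no drug added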
- Calls: active = essential (z below -3, no drug); inactive = no change without drug
This is one part, drawn at random, of 794 reagents. In the full data, 14 (1.8%) are marked active. 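Calls reflect only viability loss without drug; drug synergy does not enter the call.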 No viability above 1 is reported: the scale is capped. Not all columns of the deposit are shown. The record does not give: the amount of reagent, the time to read-out.

Gene	robust z-score, knock-down alone	viability, DMSO vs non-targeting control (fraction of control)	synergy score with BYL719	synergy score with cetuximab	outcome
COMMD3 (COMM domain containing 3)	0.0442	0.931	0.00933	-0.0686	inactive
CTNNB1 (catenin beta 1)	0.789	1	0.00556	-0.0253	inactive
NRAS (NRAS proto-oncogene, GTPase)	0.701	0.992	-0.0251	-0.0513	inactive
PIK3C2B	0.789	1	0.031	-0.008	inactive
STK16 (serine/threonine kinase 16)	0.744	0.996	0.155	0.231	inactive
MARK1 (microtubule affinity regulating kinase 1)	0.789	1	0.0177	0.102	inactive
XYLB (xylulokinase)	0.2	0.946	0.157	0.0378	inactive
MAP3K21 (mitogen-activated protein kinase kinase kinase 21)	-0.451	0.885	-0.0892	0.00787	inactive
MAP4K3 (mitogen-activated protein kinase kinase kinase kinase 3)	-1.12	0.823	0.0155	-0.0543	inactive
CDKN1B (cyclin dependent kinase inhibitor 1B)	0.789	1	0.00171	0.0311	inactive
ADPGK (ADP dependent glucokinase)	0.0793	0.934	-0.0402	0.107	inactive
PRKAG2 (protein kinase AMP-activated non-catalytic subunit gamma 2)	0.747	0.996	0.0483	-0.0472	inactive
EPHB6 (EPH receptor B6)	0.789	1	-0.0224	-0.00108	inactive
SRPK1 (SRSF protein kinase 1)	-0.135	0.915	0.0731	0.127	inactive
ACVR1B (activin A receptor type 1B)	0.789	1	0.0266	0.0289	inactive
ULK4 (unc-51 like kinase 4)	-1.37	0.801	-0.0562	0.0259	inactive
RPS6KB1 (ribosomal protein S6 kinase B1)	0.789	1	-0.0224	0.0881	inactive
NTRK3 (neurotrophic receptor tyrosine kinase 3)	0.789	1	-0.0224	-0.0328	inactive
SIK1 (salt inducible kinase 1)	0.583	0.981	0.0696	0.101	inactive
PRKAB2 (protein kinase AMP-activated non-catalytic subunit beta 2)	-0.106	0.917	0.043	0.0649	inactive
MAP3K6 (mitogen-activated protein kinase kinase kinase 6)	-0.635	0.868	-0.00642	0.0298	inactive
PIP5K1C (phosphatidylinositol-4-phosphate 5-kinase type 1 gamma)	-0.809	0.852	-0.124	0.0306	inactive
KSR2 (kinase suppressor of ras 2)	-0.647	0.867	-0.0681	0.0152	inactive
KSR1 (kinase suppressor of ras 1)	-3.99	0.558	-0.0383	0.0834	active
GRK3 (G protein-coupled receptor kinase 3)	0.244	0.95	-0.0656	-0.0916	inactive
MAP3K15 (mitogen-activated protein kinase kinase kinase 15)	0.789	1	0.0369	-0.0435	inactive
NME7 (NME/NM23 family member 7)	0.789	1	-0.0224	0.0816	inactive
CDK18 (cyclin dependent kinase 18)	-1.8	0.761	0.0527	-0.0157	inactive
MAP4K5 (mitogen-activated protein kinase kinase kinase kinase 5)	-2.3	0.714	-0.0352	-0.0334	inactive
ROCK1 (Rho associated coiled-coil containing protein kinase 1)	0.428	0.967	-0.055	-0.0408	inactive
SPEG (striated muscle enriched protein kinase)	0.789	1	-0.0224	0.0094	inactive
AGK (acylglycerol kinase)	0.225	0.948	0.166	0.172	inactive
DYRK3 (dual specificity tyrosine phosphorylation regulated kinase 3)	-0.888	0.845	-0.0133	-0.0384	inactive
PKMYT1 (protein kinase, membrane associated tyrosine/threonine 1)	-1.27	0.81	-0.163	0.0114	inactive

Individual results from above.
Value of ROCK1 (Rho associated coiled-coil containing protein kinase 1) in “robust z-score, knock-down alone”: 0.428
KSR2 (kinase suppressor of ras 2), outcome = inactive
Entry of NTRK3 (neurotrophic receptor tyrosine kinase 3) in “robust z-score, knock-down alone”: 0.789
